Source: PubChem BioAssay AID1508600 (Functional Genomics Laboratory (NCATS/FGL), 2020)
Out of some 53,000 sequences screened, about 3,700 (7%) were called active.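 How the source made its calls: active means gene knockdowns whose robust z-score for IL-1 alpha signal is at least 2 or at most -2, so actives lie on both sides; inactive means the rest.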 The list shows a part of the results.

Test: Components of the Cytosolic LPS Sensing Pathway: Gene Identification via Genome-wide siRNA Screen;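 further: robust z of the log signal after scaling to non-targeting control siRNA wells of the plate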
Conditions: RAW264.7 macrophages, IL-1a HTRF, actives lie on both sides, screened at 100 nM (by protocol), cells primed 5 h with Pam3CSK4 first
Procedure, shortened: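 RAW264.7; siRNA 100 nM final, RNAiMAX, 48h 37 degrees C; Pam3CSK4 5 h; LipidA + TransIT-TKO 24 h; IL-1a HTRF; CellTiter-Glo viability; robust z vs negative-control median.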

Q: Which z-score does the source give for GGGACUCAAAAGUCAAGUGTT against Pramel48 here?
A: inactive: 0.9

Q: Which z-score does the source give for GGCGGCUGAAAGUUUUGCATT against Pklr here?
A: inactive: 0.94

Q: For GGUGACCUUUACCCUCACATT against Mocs1, which z-score is on record?
A: inactive: -0.149

Q: With GCACAAACACCACUUUUCATT against Asb12 as the sequence, how does the z-score read?
A: inactive: -0.373

Q: For GGAAUUUCUACUACAUCACTT against Hs6st3, which z-score is on record?
A: inactive: 0.0202

Q: With GGCUGUGGAAAGAUGGACUTT against Ugt2b36 as the sequence, how does the z-score read?
A: inactive: 0.254

Q: Which z-score does the source give for GGAGCCUCCAAGUUGUAAGTT against Ifi27l2b here?
A: inactive: 0.748

Q: With GGAAACUGUUUAGGAAUUGTT against Pnpla3 as the sequence, how does the z-score read?
A: inactive: 0.253

Q: Which z-score does the source give for GGAUAUUCUUCCAGUCUUUTT against Pramel31 here?
A: inactive: -0.177

Q: With GGACUUCCUGAAAGGCGAATT against H2-Q5 as the sequence, how does the z-score read?
A: inactive: -0.388

Q: Which z-score does the source give for GGACUUAAUAGUCUCUGGGTT against Gemin5 here?
A: inactive: -0.616

Q: For CGGAUGAUUGUCACCCUGUTT against Mesp1, which z-score is on record?
A: inactive: 0.436

Q: For GGACCACCACCGUCUAUUUTT against Adora3, which z-score is on record?
A: inactive: -0.612

Q: With GGACUUAUUCGAUAUAGUATT against Nt5c1b as the sequence, how does the z-score read?
A: inactive: -1.23

Q: For GGUGUCCUCAAAGACUUUCTT against Pgc, which z-score is on record?
A: inactive: -0.343

Q: For GGAAUAAAGAAUGGUAUACTT against Zfp280d, which z-score is on record?
A: inactive: -0.0544

Q: For GGAGCUUCGGGAGAUGAUUTT against Fdxr, which z-score is on record?
A: inactive: 0.357

Q: Which z-score does the source give for GGAAAACAUUAAGAAGGGCTT against Ccn2 here?
A: active: 3.41

Q: With GCUUGUUGCAUGCUUAUCUTT against Tiaf2 as the sequence, how does the z-score read?
A: inactive: -0.933

Q: Which z-score does the source give for GGUAUCUAAGUGCUGCACUTT against Baiap2 here?
A: inactive: -0.293

Q: For GGUGGAACCUCUGAGAAAATT against Ccdc157, which z-score is on record?
A: inactive: 0.559

Q: For GGAGCUGUCAUUUAAGAAATT against Sorbs2, which z-score is on record?
A: active: 2.42

Q: With “GGUUCAAGGACACUUUCACTT against 0610012G03Rik” as the sequence, how does the z-score read?
A: inactive: -0.137

Q: For CCACUGGUCCAUCCAAAUCTT against Cyp21a1, which z-score is on record?
A: inactive: 1.47

Q: Which z-score does the source give for GUUUGGCUUAGCUGCUUUCTT against Olfr494 here?
A: inactive: 0.521

Q: Which z-score does the source give for GGAUCAUUUGAAAUUGCUGTT against Dmac2l here?
A: active: 2.88

Q: Which z-score does the source give for GGAUGGUAACCAUCAUAUUTT against Vmn1r54 here?
A: inactive: -0.887

Q: For UGGAAUAAUUACCCAUGCUTT against Gm3696, which z-score is on record?
A: inactive: 1.03

Q: Which z-score does the source give for “GGACAAAUUGAGAAAGACATT against C130026L21Rik” here?
A: inactive: 1.12

Q: For GGAGAGAGUUUUUGUUUUUTT against Fam53c, which z-score is on record?
A: inactive: 0.723

Q: For GCGAACAUCACGUCCGAUGTT against Minpp1, which z-score is on record?
A: inactive: 0.595

Q: Which z-score does the source give for GGGACUAGACAUUUCUGUGTT against Mien1 here?
A: inactive: -0.36

Q: Which z-score does the source give for GGGUAUUCAUUGAGUGGUCTT against Gnb4 here?
A: inactive: -1.68

Q: With GCUGAUGUAAGUAUUCUAGTT against Pdcl as the sequence, how does the z-score read?
A: inactive: 0.1

Q: With GGACUCUCAGGUAAAUGCATT against Mlst8 as the sequence, how does the z-score read?
A: inactive: -0.939

Q: With GGGCACAGGCGAACUAUGUTT against Arhgap25 as the sequence, how does the z-score read?
A: inactive: -1.26

Q: With GGAAAACAAUUCGUCUGCCTT against Oit1 as the sequence, how does the z-score read?
A: inactive: -0.463

Q: With GGGAGAUGUUGUCAGGGUCTT against Rnasel as the sequence, how does the z-score read?
A: inactive: -0.476

Q: With CGAAGUGGUUUUAUGUACUTT against Cdkn2b as the sequence, how does the z-score read?
A: active: -2.39

Q: Which z-score does the source give for GGAUUCUUUGAUUCAAUGUTT against Tlm here?
A: inactive: 0.98

Q: For CGAAGAUAUUACUAUUCUGTT against Lama2, which z-score is on record?
A: inactive: 1.65

Q: For GGUCGUCCAGCUGAAGAACTT against Mecr, which z-score is on record?
A: inactive: 0.721

Q: For GCUGCUCUCCCUUUAUGACTT against Lao1, which z-score is on record?
A: inactive: 0.435

Q: With CCACUUCUUUGCAUUUAAGTT against Slc28a3 as the sequence, how does the z-score read?
A: inactive: 0.277

Q: With GGAGGAUUAUUACAGAAGGTT against Lhx9 as the sequence, how does the z-score read?
A: inactive: 1.57

Q: Which z-score does the source give for GGUCCAUCAGGAAAAUCAATT against Obox6 here?
A: inactive: 0.0445

Q: For GCGCAUCAACAGAGAGGUUTT against Lama2, which z-score is on record?
A: inactive: 0.325

Q: Which z-score does the source give for GCCAGCAACAGGAUGAUAUTT against Wnk1 here?
A: inactive: 0.364

Q: For GGAAAUGGAUCCAGAAUAUTT against Smarca1, which z-score is on record?
A: inactive: -1.12

Q: For GGUGACACAUUGUUUGUUGTT against Hagh, which z-score is on record?
A: inactive: -0.458

Q: Which z-score does the source give for CCUACAGAAGGUGAAUACUTT against Traf7 here?
A: inactive: -1.78

Q: For GGCUGAAUAAAAUAAGUGUTT against Adra1a, which z-score is on record?
A: inactive: -1.1

Q: Which z-score does the source give for CCACAAGUUCCACACUCCATT against Olfr1163 here?
A: inactive: 0.42

Q: For CCGGUCUCAAAAUUAAGAATT against Themis, which z-score is on record?
A: inactive: -0.327

Q: With GGUGUUGUAAGUGAUAAGATT against Serpina5 as the sequence, how does the z-score read?
A: inactive: -0.338

Q: With GGGAAUGACAGAAAUAUAATT against Golm1 as the sequence, how does the z-score read?
A: inactive: 0.923

Q: Which z-score does the source give for GCAUGGGUGAUCUCUGUAATT against Defb50 here?
A: inactive: -0.186

Q: Which z-score does the source give for CCUCGAAUCCAGUGUCAGATT against Fxyd5 here?
A: inactive: -0.824

Q: For GGUUGGUGAUCAACAUCUCTT against Kcna6, which z-score is on record?
A: inactive: -0.878

Q: With CCCACAGUAUAGAAUGUGATT against Aldh1a2 as the sequence, how does the z-score read?
A: inactive: -1.27

Q: With GGUGGUCAUCAACACACAGTT against Caly as the sequence, how does the z-score read?
A: inactive: -0.536

Q: Which z-score does the source give for CCUUAGCAGAAUUGAGUCGTT against Kti12 here?
A: inactive: 1.33

Q: Which z-score does the source give for CGCGUUGGCAGAAAUUGAATT against Nipbl here?
A: inactive: -1.96

Q: Which z-score does the source give for GGUCUCACUGAAAAUGAAATT against Ces1g here?
A: inactive: -0.656

Q: With GGUACCAAAUUGUUUAACATT against Ndufv1 as the sequence, how does the z-score read?
A: inactive: 1.22

Q: For GGUCAUAGAACUCUGUAUGTT against Slc4a8, which z-score is on record?
A: inactive: -0.576

Q: Which z-score does the source give for GGAAAAAUACUUGAUCUCCTT against Card10 here?
A: inactive: 0.0392

Q: Which z-score does the source give for GCUGUUGGGAUUGUACCACTT against Dhx9 here?
A: inactive: -0.497
